The whole screen tested about 580,000 compounds, of which about 6,100 (1.1%) were called active. Inconclusive means that the source gave no clear call. Such entries were picked first, then a sample of the others. Calls follow the shape of the dose curve; as a rule, active = well fitted inhibition curve with a large enough effect; inconclusive = small, poorly fitted or top-dose-only effect, or another doubt; inactive = no such curve, though single readings can be large or run the other way. Potencies of inconclusive entries are doubtful fits and often do not repeat.
The compounds below were run against Polyunsaturated fatty acid lipoxygenase ALOX12 (Homo sapiens) (UniProt P18054) (assay: Primary qHTS assay for inhibitors of human arachidonate 12S-lipoxygenase (ALOX12): Round 2). Details: purified 12hLO, xylenol orange hydroperoxide absorbance; activity change, negative = inhibition: at 108 µM (top of the series) unless noted.
Summary of the method: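 Purified human 12hLO at 150 nM in 25 mM Hepes, 0.01% Triton X-100, pH 7.0, preincubated 15 min at room temperature with compound. Reaction started with 40 uM arachidonic acid, 30 min at room temperature. Hydroperoxide measured by Fe-xylenol orange, 573/405 nm absorbance ratio.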
% is scaled to controls: 0 for no effect and ±100 for the full control effect; potency is read from the fitted curve at half-maximal effect.

Chains of the proteins cited; added tags and fusions are not shown. Lines headed by an entry give the natural chain unless they say otherwise; changes in a name come on top.
UniProt P18054: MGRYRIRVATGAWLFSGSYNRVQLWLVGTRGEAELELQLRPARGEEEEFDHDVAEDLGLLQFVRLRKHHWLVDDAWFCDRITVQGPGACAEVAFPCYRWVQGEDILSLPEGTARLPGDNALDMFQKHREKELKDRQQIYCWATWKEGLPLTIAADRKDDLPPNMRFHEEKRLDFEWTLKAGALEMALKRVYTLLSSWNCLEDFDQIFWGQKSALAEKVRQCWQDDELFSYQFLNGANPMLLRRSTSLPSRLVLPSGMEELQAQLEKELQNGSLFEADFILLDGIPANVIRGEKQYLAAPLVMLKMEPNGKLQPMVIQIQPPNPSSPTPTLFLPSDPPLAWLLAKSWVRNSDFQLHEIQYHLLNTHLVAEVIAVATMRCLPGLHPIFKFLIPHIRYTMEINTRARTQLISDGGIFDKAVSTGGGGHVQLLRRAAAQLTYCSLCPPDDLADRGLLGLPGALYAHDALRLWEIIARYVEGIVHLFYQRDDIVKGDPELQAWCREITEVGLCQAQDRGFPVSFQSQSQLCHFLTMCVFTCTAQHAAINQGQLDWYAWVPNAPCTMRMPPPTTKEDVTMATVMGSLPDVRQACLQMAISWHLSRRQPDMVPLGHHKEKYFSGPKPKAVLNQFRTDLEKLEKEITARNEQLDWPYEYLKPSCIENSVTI

How did the Potency turn out when `CCN(CC)c1ccc(NC(=O)c2ccc(Br)o2)c(C)c1` was run?
The Potency was inconclusive: 50.1 µM [inhibitor, partial curve, poor fit].

Which Potency does the source give for `CCc1cccc2c(C(=O)COC(=O)c3nn(C)c(=O)c4ccccc34)c[nH]c12` here?
The Potency was inconclusive: 50.1 µM [inhibitor, single point].

`O=C(O)CC(c1cccc([N+](=O)[O-])c1)N1Cc2ccccc2C1=O` (stereo not drawn) was tested. Which Potency did it give?
Its Potency is inconclusive: 112 µM [inhibitor, single point].

`O=C(C(=O)c1ccc(O)c(O)c1)c1ccc(O)c(O)c1` was tested. Which Potency did it give?
Its Potency is inconclusive: 44.7 µM [inhibitor, partial curve].

With `O=C(O)c1cc(Cl)c(Cl)cc1C(=O)N(Cc1ccccc1)Cc1ccccc1` as the compound, how does the “activity change, negative = inhibition” value read?
The value was inactive: 0%.

With `CC(=O)O[C@H]1[C@@H](O)[C@H](O)[C@H](Oc2c(O)c(C)c3c4c2[C@@H](C)CC[C@@H]4[C@@H](C)C[C@H]3C=C(C)C)O[C@H]1C` as the compound, how does the Potency read?
Its Potency is inconclusive: 44.7 µM [inhibitor, partial curve, poor fit].

How did the “activity change, negative = inhibition” value turn out when `CSc1cccc(Nc2nc(SC)nc(-c3ccccc3)c2C#N)c1` was run?
Its value is inactive: 33.9%.

`c1ccc(Cc2nn3c(Cn4cnc5ccccc54)nnc3s2)cc1` was tested. Which Potency did it give?
The Potency was inconclusive: 39.8 µM [inhibitor, partial curve, poor fit].

How did the Potency turn out when `O=C(c1ccc(CSc2nc3ccncc3[nH]2)cc1)N1CCCCC1` was run?
The Potency was inconclusive: 0.708 µM [inhibitor, full curve, poor fit].

Which Potency does the source give for `COc1ccc(C2/C=C\CN(C(=O)c3ccccc3)CC(=O)N2Cc2cccc(F)c2)cc1` (stereo not drawn) here?
Its Potency is inconclusive: 89.1 µM [inhibitor, single point].

`CN(C)CCCN1c2ccccc2CCc2ccc(Cl)cc21` was tested. Which Potency did it give?
The Potency was inconclusive: 39.8 µM [inhibitor, partial curve, poor fit].

`Cc1ccc(C(CNC(=O)c2cc(=O)c3cc(Br)ccc3o2)N(C)C)o1` (stereo not drawn) was tested. Which Potency did it give?
Its Potency is inconclusive: 31.6 µM [inhibitor, partial curve, poor fit].

Which “activity change, negative = inhibition” value does the source give for `Cc1ccc(C(=O)Nc2ccccc2SCc2cc(=O)n3oc(C)cc3n2)cc1` here?
The value was inactive: 7.79%.

Which Potency does the source give for `N#Cc1ccc(S(=O)(=O)Nc2c(NC3CCCCC3)c3ccccc3oc2=O)cc1` here?
The Potency was inconclusive: 100 µM [inhibitor, partial curve, poor fit].

How did the Potency turn out when `Cc1cccc(Nc2nc(N)nc(CN3CCC(C(N)=O)CC3)n2)c1C` was run?
The Potency was inconclusive: 5.62 µM [inhibitor, partial curve, poor fit].

How did the Potency turn out when `CO[C@@]1(NC(=O)C2SC(=C(C(N)=O)C(=O)O)S2)C(=O)N2C(C(=O)O)=C(CSc3nnnn3C)CS[C@@H]21` (stereo partly drawn) was run?
The Potency was inconclusive: 12.6 µM [inhibitor, full curve].

Which Potency does the source give for `COC(=O)c1cccc(Nc2cc(C)nc(-c3ccccc3O)n2)c1` here?
The Potency was inconclusive: 31.6 µM [inhibitor, partial curve].

For `COc1ccc(C(=O)N2CCOCC3(C2)CN(c2nccs2)C3)cc1OC`, which “activity change, negative = inhibition” value is on record?
The value was inactive: 15.3% [at 176 µM].

With `CCOc1ccc(N(CC(=O)Nc2cccnc2)S(=O)(=O)c2ccc(C)cc2)cc1` as the compound, how does the Potency read?
Its Potency is inconclusive: 50.1 µM [inhibitor, partial curve, poor fit].

Which Potency does the source give for `COCc1cc(C)n(CC(=O)Nc2cccc(C(F)(F)F)c2)c(=O)c1C#N` here?
Its Potency is inconclusive: 35.5 µM [inhibitor, single point].

Which “activity change, negative = inhibition” value does the source give for `COc1ccc(S(=O)(=O)N2CCC3(CC2)OCCN3S(=O)(=O)c2ccc(OC)cc2)cc1` here?
The value was inactive: -23.7%.

For `Cc1ccc(C2=NN(c3nc(C)cs3)C(c3ccccc3F)C2)cc1` (stereo not drawn), which Potency is on record?
Its Potency is inconclusive: 44.7 µM [inhibitor, partial curve, poor fit].

`O=C(CN1CCN(c2ncccn2)CC1)N1CCC2(CCCNC2=O)C1` (stereo not drawn) was tested. Which “activity change, negative = inhibition” value did it give?
The value was inactive: 38.7%.

`COc1ccc(N2CCN(C(=O)c3ccc(S(=O)(=O)N4CCCC4)cc3)CC2)cc1` was tested. Which “activity change, negative = inhibition” value did it give?
Its value is inactive: 1.85%.

How did the Potency turn out when `COc1ccc2nc(NN=C(C)c3ccccn3)cc(C)c2c1` was run?
The Potency was inconclusive: 79.4 µM [inhibitor, partial curve, poor fit].

Which “activity change, negative = inhibition” value does the source give for `COc1cccc(CC(=O)N2C[C@@H](CO)[C@H](c3nc(C4CC4)no3)C2)c1` here?
Its value is inactive: 13.2%.

How did the “activity change, negative = inhibition” value turn out when `CCC(=O)N1N=C(c2ccc(C)o2)CC1c1ccc(Br)cc1` (stereo not drawn) was run?
The value was inactive: -23.4%.

With `CC(=O)Nc1ccc(-c2nccc3[nH]nc(-c4cccc(C(F)(F)F)c4)c23)cc1` as the compound, how does the “activity change, negative = inhibition” value read?
The value was inactive: -7.77%.

Which “activity change, negative = inhibition” value does the source give for `NC(=O)C1CCN(c2cc(Cl)nc(N)n2)CC1` here?
The value was inactive: 9.58%.

`CCOc1ccccc1NC(=S)N1CCN(c2ccc(OC)cc2)CC1` was tested. Which Potency did it give?
Its Potency is inconclusive: 31.6 µM [inhibitor, single point].

How did the Potency turn out when `O=C(O)CSc1cc(NS(=O)(=O)c2ccc(Br)cc2)c2ccccc2c1O` was run?
The Potency was inconclusive: 1.58 µM [inhibitor, full curve, poor fit].

For `CCN1CCN(S(=O)(=O)c2ccc(Cl)c(C(=O)Nc3ccc(OC(F)F)cc3)c2)CC1`, which “activity change, negative = inhibition” value is on record?
Its value is inactive: -18.7%.

How did the Potency turn out when `O=C(C1CCN(Cc2cccs2)CC1)N1CCN(Cc2ccc3c(c2)OCO3)CC1` was run?
Its Potency is inconclusive: 0.398 µM [inhibitor, full curve, poor fit].

For `CN1C(=O)c2ccc(N3CCCC3)cc2C1=O`, which Potency is on record?
Its Potency is inconclusive: 100 µM [inhibitor, single point].

For `O=c1oc2cc(OCc3nn[nH]n3)ccc2cc1-c1ccc(Cl)cc1`, which Potency is on record?
Its Potency is inconclusive: 35.5 µM [inhibitor, partial curve, poor fit].

Which Potency does the source give for `O=S(=O)(Nc1nc2ccccc2nc1Nc1cccc(Br)c1)c1cccs1` here?
The Potency was inconclusive: 50.1 µM [inhibitor, partial curve, poor fit].

Which “activity change, negative = inhibition” value does the source give for `Cc1ccccc1NC(=O)Cn1c(C)nc2ccc(N)cc2c1=O` here?
Its value is inactive: -8.45%.

`COC(=O)C1=C(C)N=C2SC=C(CC(=O)NCCc3cccs3)N2C1c1ccccc1Cl` (stereo not drawn) was tested. Which “activity change, negative = inhibition” value did it give?
Its value is inactive: 57.2%.

How did the “activity change, negative = inhibition” value turn out when `O=C(CN1CCN(C/C=C/c2ccccc2)CC1)Nc1ccc(F)cc1F` was run?
The value was inactive: 3.73%.

How did the Potency turn out when `O=C(O)CCc1ccc(-c2ccccc2)n1NC(=O)c1ccco1` was run?
Its Potency is inconclusive: 2.24 µM [inhibitor, full curve, poor fit].

`O=C(COC(=O)c1cnccn1)Nc1ccc(Cl)cn1` was tested. Which Potency did it give?
Its Potency is inconclusive: 79.4 µM [inhibitor, single point].

Which Potency does the source give for `CC(NC(=O)c1cc(Cl)sc1Cl)C12CC3CC(CC(C3)C1)C2` (stereo not drawn) here?
Its Potency is inconclusive: 15.8 µM [inhibitor, full curve].

How did the Potency turn out when `Cc1cccc(OCC(=O)Nc2ccc3c(c2)OCO3)c1C` was run?
The Potency was inconclusive: 89.1 µM [inhibitor, single point].

Which “activity change, negative = inhibition” value does the source give for `CC(=O)C1=C(c2ccc(C)c(C)c2)N(C(C)=O)n2c(nnc2-c2ccc(Cl)cc2)S1` here?
The value was inactive: -24.4%.

Which “activity change, negative = inhibition” value does the source give for `NC(=O)Cc1c[nH]c2ncc(-c3ccc(Cl)cc3)cc12` here?
The value was inactive: 2.79% [at 176 µM].

How did the Potency turn out when `CC(OC(=O)C1CCN(S(=O)(=O)c2ccccc2C(F)(F)F)CC1)C(=O)N(C)Cc1ccccc1` (stereo not drawn) was run?
The Potency was inconclusive: 50.1 µM [inhibitor, partial curve, poor fit].

For `O=C(NC1CCCc2c1[nH]c1ccccc21)c1ccncc1` (stereo not drawn), which “activity change, negative = inhibition” value is on record?
Its value is inactive: -4.11%.

With `COc1cc(OC)cc(C(=O)Nc2nc(CC(=O)NC(C)c3ccccc3)cs2)c1` (stereo not drawn) as the compound, how does the Potency read?
The Potency was inconclusive: 79.4 µM [inhibitor, single point].

For `CCC(C)(C)n1nnnc1C(c1ccc(C)cc1)N(Cc1ccco1)Cc1cccs1` (stereo not drawn), which Potency is on record?
The Potency was inconclusive: 112 µM [inhibitor, partial curve, poor fit].

Which “activity change, negative = inhibition” value does the source give for `COc1ccc(C)cc1S(=O)(=O)N1CCC(C(=O)NCCC2=CCCCC2)CC1` here?
The value was inactive: -0.0506%.

`CCOC(=O)c1sc(NC(=O)CSc2n[nH]c(-c3ccc(Cl)cc3Cl)n2)c(C#N)c1C` was tested. Which Potency did it give?
The Potency was inconclusive: 50.1 µM [inhibitor, partial curve, poor fit].

Which “activity change, negative = inhibition” value does the source give for `CN1C(=O)C2(CCN(C(=O)CCC3CCCC3)CC2)c2ccccc21` here?
Its value is inactive: 26.4%.

`NC(=O)C1CCN(C(=O)CCC(=O)c2ccc(Br)cc2)CC1` was tested. Which Potency did it give?
Its Potency is inconclusive: 89.1 µM [inhibitor, partial curve, poor fit].

`Cc1ccc(CN2CCN(CC(=O)Nc3ccc(C)c(C)c3)S2(=O)=O)cc1` was tested. Which Potency did it give?
Its Potency is inconclusive: 100 µM [inhibitor, partial curve, poor fit].

`CCc1nc2ccc(C(=O)N(CC)CCN(C)C)cn2c1N(C)Cc1ccc(OC)cc1` was tested. Which “activity change, negative = inhibition” value did it give?
Its value is inactive: -21.9%.

For `Cc1ccc(N(O)C(=O)NCCCCNC(=O)N(O)c2ccc(C)cc2)cc1`, which Potency is on record?
The Potency was inconclusive: 22.4 µM [inhibitor, partial curve, poor fit].

For `CCCOC(=O)CSC1=C(C#N)C(c2ccccc2OCC)C(C#N)C(=O)N1` (stereo not drawn), which “activity change, negative = inhibition” value is on record?
Its value is inactive: -18.4%.

Which Potency does the source give for `CC1(NC(=O)Nc2ccccc2)CCS(=O)(=O)C1` (stereo not drawn) here?
The Potency was inconclusive: 126 µM [inhibitor, single point].

How did the Potency turn out when `CN(C)CCCN(C(=O)c1cc(Cl)sc1Cl)c1nc2cc3c(cc2s1)OCO3` was run?
Its Potency is inconclusive: 39.8 µM [inhibitor, single point].

How did the Potency turn out when `C/C(=N\NC(=S)Nc1c(C)cccc1C)c1cc2ccccc2o1` was run?
Its Potency is inconclusive: 31.6 µM [inhibitor, partial curve].

Which “activity change, negative = inhibition” value does the source give for `CC(Cc1ccccc1)=NNc1ccc([N+](=O)[O-])cc1[N+](=O)[O-]` here?
Its value is inactive: -10.7%.

How did the “activity change, negative = inhibition” value turn out when `Cc1ccc(SCc2c(-c3ccccc3)nn(C)c2Cl)cc1` was run?
Its value is inactive: -17%.

Which Potency does the source give for `OC(c1ccccc1)c1ccccc1CN1CCCNC1=S` (stereo not drawn) here?
Its Potency is inconclusive: 56.2 µM [inhibitor, partial curve, poor fit].

With `COc1ccc(-n2c(SCC3CCCCO3)nnc2-c2ccccc2OC)cc1` (stereo not drawn) as the compound, how does the Potency read?
Its Potency is inconclusive: 8.91 µM [inhibitor, full curve, poor fit].

For `N#Cc1ccc(S(=O)(=O)N2CCCc3nc(-c4ccc(F)cc4)ccc32)cc1`, which “activity change, negative = inhibition” value is on record?
The value was inactive: -14.4%.

Which “activity change, negative = inhibition” value does the source give for `OCc1cccc(Nc2nc(-c3ccncc3)nc3ccccc23)c1` here?
Its value is inactive: -11.9%.

How did the Potency turn out when `CCSc1ccccc1C(=O)Nc1ccc2c(c1)CCC2` was run?
Its Potency is inconclusive: 44.7 µM [inhibitor, partial curve].

`CCOC(=O)C[C@H]1c2ccc(C(F)(F)F)cc2S(=O)(=O)N1c1cccc(OC)c1` was tested. Which Potency did it give?
The Potency was inconclusive: 44.7 µM [inhibitor, partial curve, poor fit].
